Test results as given in PMC10502012.

What was measured:
Assay in all cases: pull-down; transporter and TASL co-transfected in Expi293F; DDM/CHS lysate on Strep-Tactin beads, eluted with desthiobiotin; western blot with anti-GFP-HRP
[1] = target: T1, full-length human PepT2 (human) (UniProt Q16348)
T1 sequence: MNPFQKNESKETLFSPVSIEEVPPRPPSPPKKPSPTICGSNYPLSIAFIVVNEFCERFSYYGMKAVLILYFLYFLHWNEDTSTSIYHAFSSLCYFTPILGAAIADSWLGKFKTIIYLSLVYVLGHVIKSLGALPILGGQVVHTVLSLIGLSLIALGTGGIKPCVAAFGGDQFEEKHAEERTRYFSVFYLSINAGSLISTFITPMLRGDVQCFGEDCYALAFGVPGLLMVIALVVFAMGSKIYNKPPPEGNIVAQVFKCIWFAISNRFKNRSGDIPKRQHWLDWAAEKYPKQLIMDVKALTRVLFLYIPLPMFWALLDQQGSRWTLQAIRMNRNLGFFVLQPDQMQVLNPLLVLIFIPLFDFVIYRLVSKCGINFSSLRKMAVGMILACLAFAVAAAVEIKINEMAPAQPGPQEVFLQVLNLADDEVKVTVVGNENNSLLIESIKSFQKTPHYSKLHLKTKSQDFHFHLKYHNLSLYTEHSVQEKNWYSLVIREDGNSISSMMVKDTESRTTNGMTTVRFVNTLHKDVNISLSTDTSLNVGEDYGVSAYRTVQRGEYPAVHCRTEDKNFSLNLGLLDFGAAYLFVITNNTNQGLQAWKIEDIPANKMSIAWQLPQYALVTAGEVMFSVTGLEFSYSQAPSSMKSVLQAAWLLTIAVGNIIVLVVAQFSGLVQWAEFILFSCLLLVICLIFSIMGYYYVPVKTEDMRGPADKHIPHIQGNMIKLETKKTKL

[2] = target: T2, full-length human PHT2 (human) (UniProt Q8IY34)
T2 sequence: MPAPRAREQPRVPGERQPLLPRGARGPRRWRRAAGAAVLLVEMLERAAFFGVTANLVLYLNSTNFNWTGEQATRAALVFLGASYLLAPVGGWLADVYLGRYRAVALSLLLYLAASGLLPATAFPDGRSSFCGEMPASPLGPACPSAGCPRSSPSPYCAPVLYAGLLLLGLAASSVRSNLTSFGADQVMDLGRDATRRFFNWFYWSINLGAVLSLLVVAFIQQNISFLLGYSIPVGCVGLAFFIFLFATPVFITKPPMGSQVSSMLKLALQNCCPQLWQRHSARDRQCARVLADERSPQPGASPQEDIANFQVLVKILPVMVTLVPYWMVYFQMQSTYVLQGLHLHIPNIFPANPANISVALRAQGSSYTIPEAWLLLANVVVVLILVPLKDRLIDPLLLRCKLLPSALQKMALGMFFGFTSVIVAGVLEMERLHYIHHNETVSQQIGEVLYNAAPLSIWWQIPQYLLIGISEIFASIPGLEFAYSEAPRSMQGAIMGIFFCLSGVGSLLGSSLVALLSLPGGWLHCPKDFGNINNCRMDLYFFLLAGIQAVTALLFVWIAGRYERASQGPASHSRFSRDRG

[3] = target: T3, full-length human PepT1 (human) (UniProt P46059)
T3 sequence: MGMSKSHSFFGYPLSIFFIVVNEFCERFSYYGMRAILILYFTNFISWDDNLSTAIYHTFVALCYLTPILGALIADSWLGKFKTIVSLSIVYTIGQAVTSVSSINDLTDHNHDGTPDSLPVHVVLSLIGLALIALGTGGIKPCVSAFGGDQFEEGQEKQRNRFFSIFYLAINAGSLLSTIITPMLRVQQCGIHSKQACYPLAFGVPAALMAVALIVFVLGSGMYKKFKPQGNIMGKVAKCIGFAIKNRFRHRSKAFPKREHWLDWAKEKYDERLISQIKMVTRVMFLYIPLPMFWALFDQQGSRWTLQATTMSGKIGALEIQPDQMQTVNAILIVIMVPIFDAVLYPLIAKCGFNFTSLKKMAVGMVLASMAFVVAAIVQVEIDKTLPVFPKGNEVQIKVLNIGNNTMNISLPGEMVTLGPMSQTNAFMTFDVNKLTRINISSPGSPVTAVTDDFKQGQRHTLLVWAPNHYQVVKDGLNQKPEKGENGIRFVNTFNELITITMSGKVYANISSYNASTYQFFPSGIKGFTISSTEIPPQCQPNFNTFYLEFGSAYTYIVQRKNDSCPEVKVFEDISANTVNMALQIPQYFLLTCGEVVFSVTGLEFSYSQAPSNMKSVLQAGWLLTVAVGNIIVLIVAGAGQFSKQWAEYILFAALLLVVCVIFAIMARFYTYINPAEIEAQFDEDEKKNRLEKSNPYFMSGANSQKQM

Measured: binding

full-length chicken TASL, GFP-His-tagged
no binding: all assays above

Results are given in words; binding and its absence hold for the method and conditions named. Binding seen in cells or lysates may run through a third protein.
